Source: patent publication US20060253917A1
Results are given in words; binding and its absence hold for the method and conditions named. Some entries that bind do so weakly or less than the wild type. Each block holds one binder with its values, some of them ahead of it.

Chains of the proteins cited; added tags and fusions are not shown. Lines headed by an entry give the natural chain unless they say otherwise; changes in a name come on top.
UniProt A2YH60: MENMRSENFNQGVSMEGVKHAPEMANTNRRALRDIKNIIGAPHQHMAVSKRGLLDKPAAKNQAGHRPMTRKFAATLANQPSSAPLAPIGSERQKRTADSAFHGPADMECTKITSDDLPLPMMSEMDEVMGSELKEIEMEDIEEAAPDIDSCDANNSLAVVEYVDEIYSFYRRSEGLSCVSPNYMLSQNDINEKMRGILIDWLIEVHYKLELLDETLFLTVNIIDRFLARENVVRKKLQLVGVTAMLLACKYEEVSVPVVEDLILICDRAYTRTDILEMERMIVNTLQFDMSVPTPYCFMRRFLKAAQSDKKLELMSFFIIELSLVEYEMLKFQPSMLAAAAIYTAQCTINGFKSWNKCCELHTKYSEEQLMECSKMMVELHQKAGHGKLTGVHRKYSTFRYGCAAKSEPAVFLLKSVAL

Experiments:
[1] = target: T1, OsCYCOS2 aa 50-233 (Oryza sativa) (UniProt A2YH60); experiment: Y2H; input trait library
T1 sequence: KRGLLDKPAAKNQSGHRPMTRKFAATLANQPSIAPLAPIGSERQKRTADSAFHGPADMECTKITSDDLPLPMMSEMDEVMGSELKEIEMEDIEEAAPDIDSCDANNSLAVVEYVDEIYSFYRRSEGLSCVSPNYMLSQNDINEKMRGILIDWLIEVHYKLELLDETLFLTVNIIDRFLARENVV

[2] = target: T2, OsSGT1 aa 200-368 (Oryza sativa) (UniProt Q0JL44); experiment: Y2H; output trait library
T2 sequence: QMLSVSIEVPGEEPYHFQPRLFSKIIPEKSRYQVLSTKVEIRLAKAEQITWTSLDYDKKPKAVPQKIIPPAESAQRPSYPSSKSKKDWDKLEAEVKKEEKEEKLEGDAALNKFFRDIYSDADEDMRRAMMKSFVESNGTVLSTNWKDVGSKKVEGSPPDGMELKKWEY

[3] = target: OsE2F2 (367), bait fragment not printed for this prey (Oryza sativa); experiment: Y2H; input trait library
[4] = target: T3, Os006819-2510 aa 1-273 (Oryza sativa); experiment: Y2H; output trait library
T3 sequence: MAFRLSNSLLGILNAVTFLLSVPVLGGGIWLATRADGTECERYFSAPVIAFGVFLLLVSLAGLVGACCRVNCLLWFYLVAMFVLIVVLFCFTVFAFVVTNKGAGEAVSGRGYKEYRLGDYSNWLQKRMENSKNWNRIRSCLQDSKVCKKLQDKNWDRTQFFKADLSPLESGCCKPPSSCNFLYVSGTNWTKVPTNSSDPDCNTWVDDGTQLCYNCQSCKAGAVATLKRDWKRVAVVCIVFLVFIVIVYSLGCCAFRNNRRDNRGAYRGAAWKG

[5] = target: T4, Os018049-3655 aa 1-148 (Oryza sativa); experiment: Y2H; output trait library
T4 sequence: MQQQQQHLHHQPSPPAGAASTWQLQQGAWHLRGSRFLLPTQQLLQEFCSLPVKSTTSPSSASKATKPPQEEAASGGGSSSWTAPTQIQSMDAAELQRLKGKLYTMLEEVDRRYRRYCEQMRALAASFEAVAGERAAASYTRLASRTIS

[6] = target: T5, Os006819-2510 aa 1-150 (Oryza sativa); experiment: Y2H; input trait library
T5 sequence: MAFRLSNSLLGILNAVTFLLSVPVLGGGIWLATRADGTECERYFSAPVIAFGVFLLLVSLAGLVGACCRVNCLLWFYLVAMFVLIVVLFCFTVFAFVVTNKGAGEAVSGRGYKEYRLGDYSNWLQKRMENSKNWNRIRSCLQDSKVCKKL

[7] = target: T1, OsCYCOS2 aa 50-233 (Oryza sativa); experiment: Y2H; output trait library
[8] = target: T6, OsCS aa 316-583 (Oryza sativa) (UniProt A2Y0X2); experiment: Y2H; output trait library
T6 sequence: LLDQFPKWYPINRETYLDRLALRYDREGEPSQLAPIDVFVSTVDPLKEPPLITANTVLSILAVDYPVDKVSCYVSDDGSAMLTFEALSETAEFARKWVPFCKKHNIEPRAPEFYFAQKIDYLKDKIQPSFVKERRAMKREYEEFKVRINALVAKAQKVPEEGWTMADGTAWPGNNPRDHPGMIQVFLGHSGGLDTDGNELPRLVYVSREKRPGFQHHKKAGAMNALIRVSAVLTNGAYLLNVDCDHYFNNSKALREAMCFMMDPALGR

B3: OsPN31182 aa 72-255 (protein)
chain: GAAAASTPISENTFLRLNDLDIHGDDAPSSQAPTSKKKKRGARAVGPDKGGRGLRQFSMKVCEKVESKGRTTYNEVADELVAEFADPNNSILPPDPDNPNAQQYDEKNIRRRVYDALNVLMAMEIISKDKKEIQWKGLPRTSINDIEDLQTELVGLKSRIEKKNTYLQELQDQFVGMQKLIQRN
binding [3]: binds

Binder: GEKKGFMDKIKEKLPGQH [OsRAB16B aa 147-164]
binding [4]: binds

B4: OsPN23830 aa 89-250 (protein)
chain: LASQTYDLVDAHIQQLDQFMRKLEELRQEKEAATTAAAAAAAAAASVATGTPVAATVTASAGTSTADNTPKGGRSSERGRGGRKKTAKVPTEQPAPAIDLELPVDPNEPTYCLCNQVSYGEMVACDNNDCKIEWYHFGCVGVKEHPKGKWYCPSCIGFQKKR
binding [5]: binds

B5: PN30899 aa 4-228 (protein)
chain: DSLKRKTYDDELRREELLNYFRRFQSASQKKGGSGIFRQGFSPSEGVDEGPYGLSRRIACKKCGDFHLWIYTGRAKSQARWCQDCNDFHQAKDGDGWVEQSFQPVLFGLLHKPELPHAYVCAESIIFDVTEWFTCQGMRCPANTHKPSFHVNASLLKQNSGKGSTSAQRGGGIPNGVNMDGGIDEEEFFEWLQNALQSGMFESFGAQNEPPSPGSGSNAKGSNSS
binding [7]: binds

B6: OsPN31182 aa 124-324 (protein)
chain: GLRQFSMKVCEKVESKGRTTYNEVADELVAEFADPNNSILPPDPDNPNAQQYDEKNIRRRVYDALNVLMAMEIISKDKKEIQWKGLPRTSINDIEDLQTELVGLKSRIEKKNTYLQELQDQFVGMQKLIQRNEQLYGSGNIPSGGVALPFILVQTRPHATVEVEISEDMQLVHFDFNSTPFELHDDSFVLKAMSSCGEEQI
binding [3]: binds

B7: PN23363 aa 50-148 (protein)
chain: EEEVAAASAETEEHVQRILLAIDAFTRQVSEMLEAGRALFKNLAADFEDRLCSIHKERVERWEEEIRELRARDAANEQARSLLHNAQLHLLATVRHDHT
binding [1]: binds

B8: OsPN29119 prey clone -53 to 155 (protein)
chain: MEFEADGARWPEPRGDAAGAPPLERGDAPSPRFDSSRALRLLRELGSNVTEDLVVLMPNLLSFLKHDDPVVVNQSIASGTNLFAAVLEEMTLQINKCGRVDAWLEEMWAWTKQFKDAVHNLIHESVPVATKLFAVKFIETWILCFAPQSKSDRMQ
binding [8]: binds

Continued, values first:

binding [1]: binds
B1: OsPN26688 aa 132-225 (protein)
chain: PFFDYIQREIAQIKFSITRTAEMEDRLIELEAMQKVLLEGVEAYDKLQNDLVSAKERLTKILQSSDKKSTLLEMVERNELNMSILTLLDENIAS

binding [2]: binds
B2: PN23914 aa 1-263 (protein)
chain: MEGGGEVGWYVLGPNQEHVGPYALSELREHFANGYISESSMLWAEGRSEWMPLSSIPDLLAVVTKKDQPDEGIEDDFDKFQKEVIEAEAEVEASTDKAADNDINQEHGADDPDDRPATPPDGEDEFTDDDGTVYKWDRVLRAWVPQDDLEGKNDNYEVEDMTFAHEEEVFQAPDIAGSTTLEENNVSAEIEIKEPPKVEKRAHKKRKSSEKPADKKEAYKPPDSWVDLKVNTHVYVTGLPDDVTAEEIVEVFSKCGIIKEDPE

binding [4]: binds
Binder: KGPWKQKKIKNPNYQGKWK [OsCRTC aa 283-301]

binding [6]: binds
Binder: GEHHKKDGEHKEGVVEKIKDKITGDHGDGGEH [OsLIP5 aa 29-60]

binding [3]: binds
B9: OsPN31182 aa 156-334 (protein)
chain: ADPNNSILPPDPDNPNAQQYDEKNIRRRVYDALNVLMAMEIISKDKKEIQWKGLPRTSINDIEDLQTELVGLKSRIEKKNTYLQELQDQFVGMQKLIQRNEQLYGSGNIPSGGVALPFILVQTRPHATVEVEISEDMQLVHFDFNSTPFELHDDSFVLKAMSSCGEEQIDGIHDLISNG
